Reference: the supplement of paper PMC8728848
The other results are listed elsewhere or left out.

Experiments:
Assay in all cases: glycan array binding signal (z-score within array); higher = stronger binding
Conditions in all cases: glycan notation: IUPAC condensed, linker removed
[1] = molecular target: Man(a1-2)Man(a1-3)[Man(a1-2)Man(a1-6)]Man(a1-6)[Man(a1-2)Man(a1-2)Man(a1-3)]Man
In short: (§1)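 Negative Z-scores can be read as non-binding. The Z-score is calculated within each array and then averaged across arrays of one protein sequence at different concentrations or buffers and across linkers. Arrays, 3228 in all, were curated from the Consortium for Functional Glycomics database and kept only where the protein sequence was available.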

[2] = molecular target: Man(a1-2)Man(a1-3)[Man(a1-2)Man(a1-6)]Man(a1-6)[Man(a1-2)Man(a1-2)Man(a1-3)]Man(b1-4)GlcNAc(b1-4)GlcNAc
In short: as §1

[3] = molecular target: Man(a1-2)Man(a1-3)[Man(a1-6)]Man(a1-6)[Man(a1-2)Man(a1-3)]Man(b1-4)GlcNAc(b1-4)GlcNAc
In short: as §1

[4] = molecular target: Man(a1-2)Man(a1-6)[Man(a1-3)]Man(a1-6)[Man(a1-2)Man(a1-2)Man(a1-3)]Man
In short: as §1

[5] = molecular target: Man(a1-2)Man(a1-6)[Man(a1-3)]Man(a1-6)[Man(a1-2)Man(a1-2)Man(a1-3)]Man(b1-4)GlcNAc(b1-4)GlcNAc
In short: as §1

Man(a1-3)[Man(a1-6)]Man = molecular target: Man(a1-3)[Man(a1-6)]Man
In short: as §1

[6] = molecular target: Man(a1-3)[Man(a1-6)]Man(a1-6)[Man(a1-2)Man(a1-3)]Man(b1-4)GlcNAc(b1-4)GlcNAc
In short: as §1

[7] = molecular target: Man(a1-3)[Man(a1-6)]Man(a1-6)[Man(a1-3)]Man
In short: as §1

[8] = molecular target: Man(a1-3)[Man(a1-6)]Man(a1-6)[Man(a1-3)]Man(b1-4)GlcNAc(b1-4)GlcNAc
In short: as §1

[9] = molecular target: Man(a1-3)[Man(a1-6)]Man(b1-4)GlcNAc(b1-4)GlcNAc
In short: as §1

[10] = molecular target: Man(a1-3)[Man(a1-6)]Man(b1-4)GlcNAc(b1-4)[Fuc(a1-6)]GlcNAc
In short: as §1

Man(a1-6)Man = molecular target: Man(a1-6)Man
In short: as §1

Man(b1-4)GlcNAc = molecular target: Man(b1-4)GlcNAc
In short: as §1

MurNAc(b1-4)GlcNAc = molecular target: MurNAc(b1-4)GlcNAc
In short: as §1

Neu5Ac(a2-3)Gal = molecular target: Neu5Ac(a2-3)Gal
In short: as §1

[11] = molecular target: Neu5Ac(a2-3)Gal(b1-3)GalNAc
In short: as §1

[12] = molecular target: Neu5Ac(a2-3)Gal(b1-3)GalNAc(b1-3)Gal(a1-4)Gal(b1-4)Glc
In short: as §1

[13] = molecular target: Neu5Ac(a2-3)Gal(b1-3)GalNAc(b1-4)[Neu5Ac(a2-3)]Gal(b1-4)Glc
In short: as §1

[14] = molecular target: Neu5Ac(a2-3)Gal(b1-3)GalNAc(b1-4)[Neu5Ac(a2-8)Neu5Ac(a2-3)]Gal(b1-4)Glc
In short: as §1

[15] = molecular target: Neu5Ac(a2-3)Gal(b1-3)GalNAc6S
In short: as §1

[16] = molecular target: Neu5Ac(a2-3)Gal(b1-3)GlcNAc
In short: as §1

[17] = molecular target: Neu5Ac(a2-3)Gal(b1-3)GlcNAc(b1-2)Man
In short: as §1

[18] = molecular target: Neu5Ac(a2-3)Gal(b1-3)GlcNAc(b1-2)Man(a1-3)[GlcNAc(b1-4)][Neu5Ac(a2-3)Gal(b1-3)GlcNAc(b1-2)Man(a1-6)]Man(b1-4)GlcNAc(b1-4)GlcNAc
In short: as §1

[19] = molecular target: Neu5Ac(a2-3)Gal(b1-3)GlcNAc(b1-2)Man(a1-3)[Neu5Ac(a2-3)Gal(b1-3)GlcNAc(b1-2)Man(a1-6)]Man(b1-4)GlcNAc(b1-4)GlcNAc
In short: as §1

[20] = molecular target: Neu5Ac(a2-3)Gal(b1-3)GlcNAc(b1-3)Gal(b1-3)GlcNAc
In short: as §1

[21] = molecular target: Neu5Ac(a2-3)Gal(b1-3)GlcNAc(b1-3)Gal(b1-4)GlcNAc
In short: as §1

[22] = molecular target: Neu5Ac(a2-3)Gal(b1-3)GlcNAc(b1-3)GalNAc
In short: as §1

[23] = molecular target: Neu5Ac(a2-3)Gal(b1-3)GlcNAc(b1-4)Gal(b1-4)Glc
In short: as §1

[24] = molecular target: Neu5Ac(a2-3)Gal(b1-3)GlcNAc(b1-6)GalNAc
In short: as §1

[25] = molecular target: Neu5Ac(a2-3)Gal(b1-3)GlcNAc6S
In short: as §1

[26] = molecular target: Neu5Ac(a2-3)Gal(b1-3)[Fuc(a1-4)]GlcNAc
In short: as §1

[27] = molecular target: Neu5Ac(a2-3)Gal(b1-3)[Fuc(a1-4)]GlcNAc(b1-3)Gal(b1-3)[Fuc(a1-4)]GlcNAc
In short: as §1

[28] = molecular target: Neu5Ac(a2-3)Gal(b1-3)[Fuc(a1-4)]GlcNAc(b1-3)Gal(b1-4)[Fuc(a1-3)]GlcNAc
In short: as §1

[29] = molecular target: Neu5Ac(a2-3)Gal(b1-3)[GlcNAc(b1-6)]GalNAc
In short: as §1

[30] = molecular target: Neu5Ac(a2-3)Gal(b1-3)[Neu5Ac(a2-6)]GalNAc
In short: as §1

[31] = molecular target: Neu5Ac(a2-3)Gal(b1-3)[Neu5Ac(a2-6)]GlcNAc(b1-3)[Fuc(a1-3)[Gal(b1-4)]GlcNAc(b1-6)]Gal(b1-4)Glc
In short: as §1

[32] = molecular target: Neu5Ac(a2-3)Gal(b1-3)]Neu5Ac(a2-3)Gal(b1-4)]GlcNAc
In short: as §1

Neu5Ac(a2-3)Gal(b1-4)Glc = molecular target: Neu5Ac(a2-3)Gal(b1-4)Glc
In short: as §1

[33] = molecular target: Neu5Ac(a2-3)Gal(b1-4)GlcNAc
In short: as §1

[34] = molecular target: Neu5Ac(a2-3)Gal(b1-4)GlcNAc(b1-2)Man
In short: as §1

[35] = molecular target: Neu5Ac(a2-3)Gal(b1-4)GlcNAc(b1-2)Man(a1-3)[GlcNAc(b1-4)][Neu5Ac(a2-3)Gal(b1-4)GlcNAc(b1-2)Man(a1-6)]Man(b1-4)GlcNAc(b1-4)GlcNAc
In short: as §1

[36] = molecular target: Neu5Ac(a2-3)Gal(b1-4)GlcNAc(b1-2)Man(a1-3)[Neu5Ac(a2-3)Gal(b1-4)GlcNAc(b1-2)Man(a1-6)]Man(b1-4)GlcNAc(b1-4)GlcNAc
In short: as §1

[37] = molecular target: Neu5Ac(a2-3)Gal(b1-4)GlcNAc(b1-2)Man(a1-3)[Neu5Ac(a2-3)Gal(b1-4)GlcNAc(b1-2)Man(a1-6)]Man(b1-4)GlcNAc(b1-4)[Fuc(a1-6)]GlcNAc
In short: as §1

[38] = molecular target: Neu5Ac(a2-3)Gal(b1-4)GlcNAc(b1-2)Man(a1-3)[Neu5Ac(a2-6)Gal(b1-4)GlcNAc(b1-2)Man(a1-6)]Man(b1-4)GlcNAc(b1-4)GlcNAc
In short: as §1

[39] = molecular target: Neu5Ac(a2-3)Gal(b1-4)GlcNAc(b1-2)[Neu5Ac(a2-3)Gal(b1-4)GlcNAc(b1-4)]Man(a1-3)[GlcNAc(b1-4)][Neu5Ac(a2-3)Gal(b1-4)GlcNAc(b1-2)[Neu5Ac(a2-3)Gal(b1-4)GlcNAc(b1-6)]Man(a1-6)]Man(b1-4)GlcNAc(b1-4)GlcNAc
In short: as §1

B1: pilr alpha (protein)
chain: MLYGVTQPKHLSASMGGSVEIPFSFYYPWELATAPDVRISWRRGHFHRQSFYSTRPPSIHKDYVNRLFLNWTEGQKSGFLRISNLQKQDQSVYFCRVELDTRSSGRQQWQSIEGTKLSIT
glycan array binding signal (z-score) [1]: 0.506
glycan array binding signal (z-score) [2]: -0.19
glycan array binding signal (z-score) [3]: 0.363
glycan array binding signal (z-score) [4]: 0.278
glycan array binding signal (z-score) [5]: -0.021
glycan array binding signal (z-score) (Man(a1-3)[Man(a1-6)]Man): -0.008
glycan array binding signal (z-score) [6]: -0.054
glycan array binding signal (z-score) [7]: -0.019
glycan array binding signal (z-score) [8]: 1.32
glycan array binding signal (z-score) [9]: -0.357
glycan array binding signal (z-score) [10]: -0.08
glycan array binding signal (z-score) (Man(a1-6)Man): 1.2
glycan array binding signal (z-score) (Man(b1-4)GlcNAc): 0.185
glycan array binding signal (z-score) (MurNAc(b1-4)GlcNAc): -0.076
glycan array binding signal (z-score) (Neu5Ac(a2-3)Gal): -0.92
glycan array binding signal (z-score) [11]: -0.231
glycan array binding signal (z-score) [12]: 0.025
glycan array binding signal (z-score) [13]: -0.367
glycan array binding signal (z-score) [14]: -0.149
glycan array binding signal (z-score) [15]: -0.67
glycan array binding signal (z-score) [16]: 0.233
glycan array binding signal (z-score) [17]: -0.606
glycan array binding signal (z-score) [18]: -0.235
glycan array binding signal (z-score) [19]: 0.101
glycan array binding signal (z-score) [20]: -0.035
glycan array binding signal (z-score) [21]: -0.013
glycan array binding signal (z-score) [22]: -0.652
glycan array binding signal (z-score) [23]: -0.638
glycan array binding signal (z-score) [24]: -0.073
glycan array binding signal (z-score) [25]: 0.095
glycan array binding signal (z-score) [26]: -0.616
glycan array binding signal (z-score) [27]: 0.274
glycan array binding signal (z-score) [28]: -0.971
glycan array binding signal (z-score) [29]: -0.383
glycan array binding signal (z-score) [30]: -0.4
glycan array binding signal (z-score) [31]: -0.552
glycan array binding signal (z-score) [32]: -0.162
glycan array binding signal (z-score) (Neu5Ac(a2-3)Gal(b1-4)Glc): 0.431
glycan array binding signal (z-score) [33]: -0.33
glycan array binding signal (z-score) [34]: -0.018
glycan array binding signal (z-score) [35]: -0.908
glycan array binding signal (z-score) [36]: -0.298
glycan array binding signal (z-score) [37]: -0.569
glycan array binding signal (z-score) [38]: 0.094
glycan array binding signal (z-score) [39]: -1.02
